Some results were stated once for a whole list of compounds, not compound by compound.
Key:
[1] = system: rat monosodium iodoacetate model of knee osteoarthritis; settings: in vivo
[2] = system: rat monosodium iodoacetate model of knee osteoarthritis; settings: in vivo; remark: listed apart in the source

Row | Compound | duration of effect on mechanical hyperalgesia [1] | duration of effect on weight bearing asymmetry [2]
1 | C=C(C)[C@]12C[C@@H](C)[C@@]34O[C@](Cc5ccccc5)(O[C@@H]1[C@@H]3C=C(COC(=O)Cc1ccc(O)c(OC)c1)C[C@]1(O)C(=O)C(C)=C[C@@H]41)O2 [RTX, resiniferatoxin] | 1-2 weeks | not more than 2 weeks
2 | COc1cc(CNC(=O)CCCC/C=C/C(C)C)ccc1O [CAP, capsaicin] | 1-2 weeks | not more than 2 weeks

Reference: patent publication US20250099421A1 (priority 2023, published 2025)
